Laboratory results as given in patent US11655492B2, “Activated formylglycine-generating enzymes and methods of producing and using the same” (R.P. Scherer Technologies, LLC, priority 2015, dated 2023).
At least one compound was matched to its structure with a doubt left.

Assays:
recombinant human FGE = target: T1, recombinant human FGE (Homo sapiens, UniProt Q8NBK3); experiment: In vivo conversion in CHO cells expressing recombinant human FGE and αHER2 mAb, additives in culture medium; conditions: potential stimulators of lactate consumption; lactate or pyruvate 1.5 g/L with feeds
T1 sequence (Q8NBK3 34-374): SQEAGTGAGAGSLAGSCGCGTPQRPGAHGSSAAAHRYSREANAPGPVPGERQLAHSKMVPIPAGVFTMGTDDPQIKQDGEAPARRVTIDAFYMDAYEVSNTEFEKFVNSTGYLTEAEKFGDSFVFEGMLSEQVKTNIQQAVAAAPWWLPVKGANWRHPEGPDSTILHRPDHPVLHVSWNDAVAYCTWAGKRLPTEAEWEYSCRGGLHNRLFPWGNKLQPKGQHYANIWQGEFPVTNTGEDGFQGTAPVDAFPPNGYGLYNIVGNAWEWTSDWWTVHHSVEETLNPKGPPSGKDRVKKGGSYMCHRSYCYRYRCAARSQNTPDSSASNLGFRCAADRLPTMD

[1] = cited from earlier work

Row | SMILES | effect on conversion efficiency of the FGE (recombinant human FGE) | E0′ (reduction potential) [1] [mV]
1 | CC(=O)C(=O)O [pyruvate] | did not increase conversion efficiency | –
2 | OCCS [βME, β-mercaptoethanol] | – | −207
